# PubChem BioAssay AID504764, Drosophila RNAi Screening Center | 2011
# Test: 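Genome-wide screen for regulators of Notch-driven gene expression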 (primary screen)
# System: Drosophila Kc167 cells
# Reagent: long dsRNA against Drosophila genes
# Duration: about 5 days (4 days dsRNA, then 24 h after transfection)
# Challenge: transfection of constitutively active membrane-tethered Notch lacking the extracellular domain, read 24 h later
# Measurement: 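Firefly luciferase from an E(spl)m3 reporter with active Notch, plus control-promoter and uninduced reporter wells for normalisation; unnormalised counts, duplicate wells a and b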
# Scale: induced reporter light, run 1, well a and induced reporter light, run 1, well b: higher = more light from the Notch target reporter with active Notch; control promoter light, run 1, well a and control promoter light, run 1, well b: higher = more light from the viral control promoter (cell number, transfection, viability); uninduced reporter light, run 1, well a: higher = more light from the Notch target reporter without active Notch
# Hit rule: 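Hit if the duplicate-averaged log2 ratio of induced to control-promoter light gives a plate-wise z beyond ±2, or induced to uninduced beyond ±1.8; weak-control or discordant-duplicate wells dropped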
# Meaning of the calls: active = modifier hit (raised or lowered Notch signal); inactive = not a hit
# The deposit covers about 22,000 reagents; below is a random part of those that have a named target and a result. Over the whole deposit, 403 (1.9%) are marked active. 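Unnormalised raw counts per well; ratio z-scores behind the hit calls and whether each hit raises or lowers signal are not deposited.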 Reagents against one gene are numbered here. Not stated in the record: the amount of reagent.
predicted target,reagent no.,"induced reporter light, run 1, well a","induced reporter light, run 1, well b","control promoter light, run 1, well a","control promoter light, run 1, well b","uninduced reporter light, run 1, well a",Outcome
Galphao (G protein alpha subunit o),1,83925,90445,69535,66785,7292,inactive
Lcp1Psi (Larval cuticle protein 1 pseudogene),1,98905,1.26e5,1.58e5,1.56e5,5590,inactive
Ubc2 (Ubiquitin conjugating enzyme 2),1,1.22e5,1.61e5,1.53e5,1.58e5,10950,inactive
Ubc2 (Ubiquitin conjugating enzyme 2),2,1.21e5,1.36e5,72430,1.10e5,18800,inactive
CG18302,1,1.20e5,1.28e5,71265,1.07e5,16660,inactive
Cirl (Calcium-independent receptor for alpha-latrotoxin),1,,,,,,inactive
CG4968,1,3.14e5,2.82e5,2.52e5,2.61e5,22485,inactive
CG42613,1,20992,19140,26090,25250,4215,inactive
CG42613,2,2.04e5,1.91e5,2.52e5,2.68e5,17190,inactive
CG42613,3,2.51e5,2.71e5,3.15e5,3.16e5,16790,inactive
Zyx (Zyxin),1,56710,75955,89845,91270,6140,inactive
Spn42Da (Serpin 42Da),1,2.18e5,2.66e5,2.64e5,2.74e5,21710,inactive
Obp44a (Odorant-binding protein 44a),1,2.05e5,1.93e5,2.29e5,2.10e5,15120,inactive
bin (biniou),1,2.09e5,1.55e5,2.48e5,3.13e5,8115,inactive
2mit,1,2.45e5,2.64e5,1.74e5,2.52e5,21060,inactive
2mit,2,3.04e5,2.90e5,1.96e5,2.35e5,22425,inactive
CG31823,1,1.11e5,1.04e5,1.21e5,1.45e5,10295,inactive
Lipt1 (Lipoyltransferase 1),1,1.33e5,1.21e5,1.85e5,1.69e5,10265,inactive
Lipt1 (Lipoyltransferase 1),2,51830,54915,73125,74700,4180,inactive
CG11125,1,1.38e5,1.40e5,1.84e5,1.99e5,12295,inactive
